These are yes or no findings as the source states them, for the method shown. In cells and extracts the contact can be indirect. Here binding means that the protein was enriched with, or labelled near, the bait; the list need not be complete. Where a sequence is shown, tags or fusion partners need not be part of it.
B1: Ciao1 (protein, UniProt Q7K1Y4 1-335)
chain: MGRLILEHTLQGHKGRIWGVAWHPKGNVFASCGEDKAIRIWSLTGNTWSTKTILSDGHKRTIREIRWSPCGQYLASASFDATTAIWSKSSGEFECNATLEGHENEVKSVSWSRSGGLLATCSRDKSVWIWEVAGDDEFECAAVLNPHTQDVKRVVWHPTKDILASASYDNTIKMFAEEPIDNDWDCTATLTSHTSTVWGIDFDADGERLVSCSDDTTIKIWRAYHPGNTAGVATPDQQTVWKCVCTVSGQHSRAIYDVSWCKLTGLIATACGDDGIRIFKESSDSKPDEPTFEQITAEEGAHDQDVNSVQWNPVVAGQLISCSDDGTIKIWKVTE
B2: Mip18 (protein, UniProt Q9VTC4 1-156)
chain: MPTEIENINPNVYDRIKERVLTANEEDENVPDPFDKREIFDLIRNINDPEHPLTLEELHVVQEDLIRINDSQNSVHISFTPTIPHCSMATLIGLSIRVKLLRSLPPRFKVTVEITPGTHASELAVNKQLADKERVAAALENNHLAEVINQCIAAKG

By UniProt entry, the sequences of proteins in these tests, tags left out. Where a name states a change or a piece, a line headed by the entry shows the natural chain unless it says otherwise.
UniProt O62526: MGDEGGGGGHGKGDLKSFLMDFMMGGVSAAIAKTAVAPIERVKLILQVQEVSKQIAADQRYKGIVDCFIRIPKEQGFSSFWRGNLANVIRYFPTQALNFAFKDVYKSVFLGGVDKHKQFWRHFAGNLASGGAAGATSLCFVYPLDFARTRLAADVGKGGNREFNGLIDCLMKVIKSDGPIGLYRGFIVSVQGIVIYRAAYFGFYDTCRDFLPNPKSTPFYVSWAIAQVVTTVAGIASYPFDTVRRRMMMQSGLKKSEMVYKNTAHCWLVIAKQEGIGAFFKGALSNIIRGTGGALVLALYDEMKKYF

target: T1, Mms19::eGFP (Drosophila) (UniProt Q95U54); assay: affinity purification with mass spectrometry; anti-GFP antibody (3E6) on ProteinG-Mag Sepharose beads incubated with crude whole-fly extracts 6 hrs at 4°C; 25mM Hepes, 150mM NaCl, 1mM EDTA; controls: wild-type flies and Imp::eGFP flies
T1 sequence: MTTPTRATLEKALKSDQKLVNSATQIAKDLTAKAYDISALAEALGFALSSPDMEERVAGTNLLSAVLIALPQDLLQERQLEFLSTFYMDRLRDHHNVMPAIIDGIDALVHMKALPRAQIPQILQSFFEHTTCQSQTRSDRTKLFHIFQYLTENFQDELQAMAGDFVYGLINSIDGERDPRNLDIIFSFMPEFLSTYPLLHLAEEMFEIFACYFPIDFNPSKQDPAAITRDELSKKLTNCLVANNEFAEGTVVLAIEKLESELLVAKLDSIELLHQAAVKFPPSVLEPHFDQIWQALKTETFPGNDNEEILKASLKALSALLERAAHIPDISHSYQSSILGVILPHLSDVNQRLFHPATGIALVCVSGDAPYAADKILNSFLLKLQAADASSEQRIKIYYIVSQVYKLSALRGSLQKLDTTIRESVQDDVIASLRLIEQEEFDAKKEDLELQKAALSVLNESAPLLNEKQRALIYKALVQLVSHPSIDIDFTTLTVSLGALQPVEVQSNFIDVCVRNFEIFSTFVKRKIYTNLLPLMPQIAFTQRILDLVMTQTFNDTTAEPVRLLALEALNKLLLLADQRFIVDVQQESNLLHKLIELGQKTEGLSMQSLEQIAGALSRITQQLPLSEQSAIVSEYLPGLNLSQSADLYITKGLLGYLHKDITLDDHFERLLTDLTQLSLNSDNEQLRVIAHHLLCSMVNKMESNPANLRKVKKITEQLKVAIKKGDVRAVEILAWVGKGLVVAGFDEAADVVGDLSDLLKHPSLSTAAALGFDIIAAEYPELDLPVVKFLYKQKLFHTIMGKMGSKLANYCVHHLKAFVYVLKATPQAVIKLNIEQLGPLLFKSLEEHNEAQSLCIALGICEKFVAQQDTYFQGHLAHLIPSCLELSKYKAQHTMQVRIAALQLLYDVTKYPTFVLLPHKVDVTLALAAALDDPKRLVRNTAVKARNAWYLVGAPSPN

binding, binds:
Ant2 (from UniProt O62526)
B1
B2
